# Library screen at single concentrations

Amino acid sequences for entries named in this document (tags omitted).
UniProt I6X8D2, whole entry: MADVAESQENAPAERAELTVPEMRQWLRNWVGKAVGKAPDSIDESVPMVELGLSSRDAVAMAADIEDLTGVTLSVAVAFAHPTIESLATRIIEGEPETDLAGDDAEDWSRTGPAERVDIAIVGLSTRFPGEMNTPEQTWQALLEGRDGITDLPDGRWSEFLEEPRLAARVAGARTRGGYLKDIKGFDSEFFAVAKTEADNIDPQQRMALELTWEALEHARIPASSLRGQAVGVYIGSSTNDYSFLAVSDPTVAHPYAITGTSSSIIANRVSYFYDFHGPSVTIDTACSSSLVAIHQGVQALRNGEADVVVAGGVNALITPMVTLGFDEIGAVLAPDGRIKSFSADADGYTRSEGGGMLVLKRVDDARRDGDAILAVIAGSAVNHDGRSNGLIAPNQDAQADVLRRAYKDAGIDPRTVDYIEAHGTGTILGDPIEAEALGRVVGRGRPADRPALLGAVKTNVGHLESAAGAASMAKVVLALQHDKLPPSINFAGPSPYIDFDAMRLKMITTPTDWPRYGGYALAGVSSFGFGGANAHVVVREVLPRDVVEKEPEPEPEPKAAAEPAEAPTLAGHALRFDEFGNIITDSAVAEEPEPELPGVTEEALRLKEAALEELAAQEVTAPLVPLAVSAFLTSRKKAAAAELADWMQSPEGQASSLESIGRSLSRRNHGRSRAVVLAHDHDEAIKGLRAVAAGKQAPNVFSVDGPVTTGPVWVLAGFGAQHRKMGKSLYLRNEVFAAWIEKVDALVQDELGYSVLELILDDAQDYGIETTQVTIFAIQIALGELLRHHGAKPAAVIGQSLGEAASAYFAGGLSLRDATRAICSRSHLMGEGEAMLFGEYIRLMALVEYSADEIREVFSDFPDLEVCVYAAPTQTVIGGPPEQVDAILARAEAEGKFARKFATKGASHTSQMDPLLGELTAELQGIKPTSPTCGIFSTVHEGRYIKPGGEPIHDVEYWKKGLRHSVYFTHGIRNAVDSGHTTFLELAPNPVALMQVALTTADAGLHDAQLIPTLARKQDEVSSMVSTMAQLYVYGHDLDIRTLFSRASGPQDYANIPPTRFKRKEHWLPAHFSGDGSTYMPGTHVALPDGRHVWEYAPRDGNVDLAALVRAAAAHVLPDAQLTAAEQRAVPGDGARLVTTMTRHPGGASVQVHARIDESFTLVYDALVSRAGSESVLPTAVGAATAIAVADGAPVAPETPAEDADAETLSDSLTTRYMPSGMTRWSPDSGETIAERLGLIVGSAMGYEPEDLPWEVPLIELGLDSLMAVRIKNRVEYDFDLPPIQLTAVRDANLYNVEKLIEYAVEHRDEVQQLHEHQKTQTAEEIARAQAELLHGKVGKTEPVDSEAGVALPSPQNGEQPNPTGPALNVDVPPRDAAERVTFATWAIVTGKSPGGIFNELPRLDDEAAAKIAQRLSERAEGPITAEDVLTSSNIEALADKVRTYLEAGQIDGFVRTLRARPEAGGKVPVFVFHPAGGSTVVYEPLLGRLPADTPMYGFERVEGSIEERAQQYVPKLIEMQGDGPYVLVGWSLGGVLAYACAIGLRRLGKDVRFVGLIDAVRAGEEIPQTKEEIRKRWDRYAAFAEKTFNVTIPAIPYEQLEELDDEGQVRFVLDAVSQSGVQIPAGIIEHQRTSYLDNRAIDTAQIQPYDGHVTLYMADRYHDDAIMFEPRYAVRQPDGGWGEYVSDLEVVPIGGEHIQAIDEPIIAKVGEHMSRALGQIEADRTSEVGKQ

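Enzyme assay of the thioesterase domain of polyketide synthase 13; the read-out is not stated. Target: Polyketide synthase Pks13, Mycobacterium tuberculosis (UniProt I6X8D2). Compounds at 30 µM. Higher reads as stronger inhibition (inferred from which compounds were picked for retests). Size under these conditions: about 67,000 compounds, about 300 of them at 50% or above in at least one test.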

Values are the deposited “Percent Effect”, in %. The controls that fix the scale are not given in the record; negative values are as filed. This is an unselected part of the compounds tested.

compound: c1csc(-c2noc(CC3CCCO3)n2)c1 (stereo not given)
Percent Effect: 5.533

compound: CC(C)N1CCC(C(=O)N2CCC(c3ccc(F)cc3)C2)CC1 (stereo not given)
Percent Effect: -30.19

compound: O=C(c1ccccc1)N1CC[C@H]2C[C@H](c3nnc(C4CC4)o3)O[C@@H]2C1
Percent Effect: -9.63

compound: CC(O)Cc1cn(CC2CCN(c3nccc4occc34)CC2)nn1 (stereo not given)
Percent Effect: 11.79

compound: CCOCCN1CCN(c2ncccc2C#N)CC1CC (stereo not given)
Percent Effect: 0.1934

compound: O=C(C1CCC1)N1C[C@@H]2CCN(c3cccnc3)C[C@@H]2C1
Percent Effect: 18.08

compound: CCNC(=O)CN1CCC(OCC2CCCO2)CC1 (stereo not given)
Percent Effect: 1.579

compound: COCCN(Cc1coc(-c2ccc(OC)cc2)n1)C1CC1
Percent Effect: -23.73

compound: CN(Cc1ccccc1)C(=O)CCNc1ncccc1C#N
Percent Effect: 4.677

compound: CCC1CN(CC(=O)N2CCCC2)CCN1CCOC (stereo not given)
Percent Effect: -13.82

compound: COc1ccccc1CN1CC[C@]2(C[C@@H](OCC(=O)N(C)C)CO2)C1
Percent Effect: -12.46

compound: COc1ccc(C(C)N(C)Cc2c(C(C)C)[nH]c3ncccc23)cc1 (stereo not given)
Percent Effect: -45.83

compound: CNC(=O)c1ccc(CN2CCN(C3=NCC(C)(C)S3)CC2)cc1
Percent Effect: -14.44

compound: O=C(NCc1ccccn1)[C@]12COC[C@H]1CN(C1CCC1)C2
Percent Effect: -4.967

compound: CCN(Cc1ccoc1)C(=O)c1ccc(C)c(S(N)(=O)=O)c1
Percent Effect: -6.251

compound: CC(c1ccc(Cl)cc1)N1CCN(CCCS(C)(=O)=O)CC1 (stereo not given)
Percent Effect: 0.3357

compound: O=C(NCc1cccnc1)NCC(O)c1cccc(C(F)(F)F)c1 (stereo not given)
Percent Effect: -10.57

compound: CC(C)C(=O)N1CCC(NC2CCSCC2)C1 (stereo not given)
Percent Effect: -28.13

compound: COc1ccc(OCC2CCCN(c3nc(CO)cs3)C2)cc1 (stereo not given)
Percent Effect: 16.18

compound: Cn1cc(CN2CCC(c3ncc(Cl)cc3S(C)(=O)=O)CC2)cn1
Percent Effect: 3.737

compound: Cc1ccc(N2CC[C@@H]3[C@@H]2CCN3C(=O)Cc2ccccc2)nn1
Percent Effect: -5.895

compound: CSc1cccc(CN2CCn3nc(CNC(C)=O)cc3C2)c1
Percent Effect: 4.911

compound: Cc1ccnc(NCCCN2CCc3ccccc32)n1
Percent Effect: -9.216

compound: O=C(NCC1Cn2nnc(-c3ccsc3)c2CO1)c1ccc[nH]1 (stereo not given)
Percent Effect: 2.519

compound: Cc1cc(CC(=O)NC2CCCN(c3ccccc3F)C2=O)n[nH]1 (stereo not given)
Percent Effect: -8.069

compound: Cc1noc(C)c1-c1cccc(CC2CCN(C(=O)c3cscn3)C2)n1 (stereo not given)
Percent Effect: -10.75

compound: NCc1cc(-c2ccccc2)n2nccc2n1
Percent Effect: 25.59

compound: CC(NC(=O)CCCOc1ccccc1Cl)c1ccncc1 (stereo not given)
Percent Effect: -19.86

compound: O=S(=O)(NCCC(O)c1cccs1)c1ccccc1Cl (stereo not given)
Percent Effect: -32.39

compound: N#CCCCOc1cccnc1NC(=O)CCC1CCCC1
Percent Effect: -7.338

compound: CS(=O)(=O)N[C@@H]1COC[C@@H]2CN(Cc3ccco3)C[C@@H]21
Percent Effect: -10.77

compound: COc1ccccc1CCNC(=O)CNCC1CN(C)CCO1 (stereo not given)
Percent Effect: -38.29

compound: CC(C)CNC(=O)CCN1C(=O)CCc2cc(F)ccc21
Percent Effect: -31.15

compound: N#Cc1ncn(CCC(=O)Nc2ccccc2F)n1
Percent Effect: 1.024

compound: COc1ccc(CNC(=O)CCSCc2csc(C)n2)cn1
Percent Effect: 0.1644

compound: Cc1cccc(C(=O)N2CCn3cc(CNC(=O)CC4CC4)nc3C2)n1
Percent Effect: -10.04

compound: CS(=O)(=O)NCc1cc2n(n1)CCCN(Cc1cccc(C#N)c1)C2
Percent Effect: -8.515

compound: O=C(Nc1cccc(Cl)c1)c1nn(C2CCS(=O)(=O)C2)c2c1CCCC2 (stereo not given)
Percent Effect: -23.82

compound: CNc1cc(N2CCCC2CNCc2cccnc2)ncn1 (stereo not given)
Percent Effect: -11.83

compound: COc1cccc(-c2n[nH]c3c2CN(C(=O)c2cccc(=O)[nH]2)CC3)c1
Percent Effect: -48.95

compound: CN(C)C(=O)N1C[C@@H]2CC[C@H](C1)N(Cc1nnc(-c3ccco3)o1)C2
Percent Effect: -26.33

compound: CC(O)(CNC(=O)NCCc1ccc2c(c1)CCO2)c1ccccc1 (stereo not given)
Percent Effect: -8.819

compound: O=C1CCC(=O)N1c1nn(Cc2ccc(F)cc2)cc1Cl
Percent Effect: -20.4

5 of the entries, repeated:

compound,Percent Effect
N#Cc1ncn(CCC(=O)Nc2ccccc2F)n1,1.024
c1csc(-c2noc(CC3CCCO3)n2)c1 (stereo not given),5.533
COCCN(Cc1coc(-c2ccc(OC)cc2)n1)C1CC1,-23.73
O=C(c1ccccc1)N1CC[C@H]2C[C@H](c3nnc(C4CC4)o3)O[C@@H]2C1,-9.63
N#CCCCOc1cccnc1NC(=O)CCC1CCCC1,-7.338

Source: ChEMBL document CHEMBL3988442, “University of Dundee, Small-Polar-MMV Screening Library” (2021).